# Test results: PubChem BioAssay AID493014 (National Center for Advancing Translational Sciences (NCATS), 2011)
# The whole screen tested about 340,000 compounds, of which about 170 (0.05%) were called active. Inconclusive means that the source gave no clear call. Such entries were picked first, then a sample of the others. Calls come from the whole dose curve; as a rule, active = well fitted inhibition curve with a large enough effect in the signal ratio, with a control signal flat (not every such curve was filed as active); inconclusive = small, poorly fitted or top-dose-only effect, or effect the other way, or a change in a side signal; inactive = flat fitted curve, though single readings scatter; the % refers to the signal ratio. Potencies beside an inconclusive call are fits to weak or partial responses and may not hold up.
# Assay: qHTS Assay to Find Inhibitors of Chronic Active B-Cell Receptor Signaling;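 for activity change, negative = inhibition: plate controls were basal doxycycline-induced cells for no effect and cells given 10 µM MG132 for full effect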
# Conditions: ABC-DLBCL IkBa-CBG/CBR reporter, luminescence ratio (green luciferase fused to IkBa over red control in TMD8 lymphoma cells), 4 h; activity change, negative = inhibition: at 46.1 µM (top of the series) unless noted
# In short: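 Concentration-response series (up to 46 uM) were applied to TMD8 dual-reporter cells for 4 h at 37C with doxycycline. Green/red ratio, after filter-overlap correction, defined %Activity; red signal alone was normalised to basal cells and zero luminescence.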
# Potency is the fitted concentration of half-maximal effect.
Structure (SMILES),"activity change, negative = inhibition",Potency
O=C(CSc1nnnn1-c1ccccc1)Nc1nc(-c2ccccc2)ns1,inconclusive: 10%,
O=c1cc(O)c(-c2ccccc2)c(Cl)[nH]1,,"inconclusive: 0.82 µM [rising, full curve, poor fit]"
NN/C(=C\[N+](=O)[O-])Nc1ccc(Cl)cc1,inconclusive: 7.33%,
Cc1cccc(NC(=O)CCC(=O)N2CCOCC2)n1,inconclusive: -0.185%,
COc1ccccc1C(=O)Nc1ccc2c(c1)CCCN2C(=O)c1ccccc1,inconclusive: 6.81%,
Cc1nonc1C(=O)N/N=C/c1ccc([N+](=O)[O-])o1,,"inconclusive: 28.2 µM [falling, single point]"
N/C(=N\OC(=O)CCc1ccccc1)c1ccccc1Cl,inconclusive: 0.393%,
CN1c2ccc([N+](=O)[O-])cc2C(C)(C)C12C=Cc1cc(C(=O)O)ccc1O2 (stereo unspecified),,"inconclusive: 22.4 µM [falling, single point]"
N#Cc1c(-c2ccccc2)cc(C2CC2)nc1N,inconclusive: -6.45%,
Cc1c(-c2nc(-c3cccnc3)no2)cccc1[N+](=O)[O-],inconclusive: 1.85%,
CCCOc1ccccc1NC(=O)c1c(-c2ccccc2)noc1C,inactive,
O=C(NCc1ccncc1)c1cccc(S(=O)(=O)NCc2ccccc2)c1,inactive,
NC(=O)[C@@H]1CC2(CC(c3cccc(NC(=O)CC(c4ccccc4)c4ccccc4)c3)=NO2)CN1C(=O)c1ccc(Cl)cc1 (stereo partly specified),inconclusive: 16.9%,
O=C(/C=C/c1ccco1)Nc1ccc(F)cc1,,"inconclusive: 18.4 µM [falling, partial curve]"
Nc1nc(COC(=O)CCC(=O)c2ccc(Cl)cc2)nc(Nc2ccccc2)n1,inconclusive: -18.3%,
CCc1cc(-c2n[nH]c(C)c2-c2nc(C)cs2)c(O)cc1OC,inactive,
Cc1nc(SCC(=O)Nc2ccc3[nH]c(=O)[nH]c3c2)nc(C)c1C,inactive,
COc1ccccc1NC(=O)Nc1ccc2c(c1)nc(C)n2C,,"inconclusive: 17.8 µM [falling, partial curve]"
CCN(CC(=O)Nc1c(F)cccc1F)C(=O)c1ccc(COc2ccccc2)o1,inconclusive: -1.46%,
Cc1ccc(NC(=O)CN2CCN(CCN=CC3=C(O)CC(C)(C)CC3=O)CC2)cc1,inconclusive: -4.27%,
CCCCNS(=O)(=O)c1ccc2nc(SCC(=O)c3ccccc3OC)[nH]c2c1,,"inconclusive: 23.1 µM [falling, single point]"

Structure (SMILES),"activity change, negative = inhibition",Potency
Cc1noc(C)c1COc1ccccc1C(=O)N1CCN(S(=O)(=O)c2ccccc2C(F)(F)F)CC1,inactive,
CCC(C)NCCOc1ccc(C(C)(C)c2ccccc2)cc1 (stereo unspecified),,"inconclusive: 22.4 µM [falling, partial curve, poor fit]"
O=c1c2c(nc3cc(-c4ccccc4Cl)[nH]n13)CCS2,,"inconclusive: 7.08 µM [rising, partial curve, poor fit]"
Cc1ccc2[nH]c3c(Cl)ncnc3c2c1,inactive,
O=[N+]([O-])c1ccc(C2=Nc3cc(Cl)ccc3OC2)cc1,inconclusive: 6.9%,
C=C(CC)C(=O)c1ccc(OCC(=O)O)c(Cl)c1Cl,,"inconclusive: 17.8 µM [rising, single point]"
CN1CCN(c2ccc(C(=O)c3ccc(Br)cc3)cc2[N+](=O)[O-])CC1,inactive,
CCn1c(C)c(C)c2cc(C(=O)NCCCN3CCCCC3C)ccc21 (stereo unspecified),inactive,
COC(=O)c1cc(OC)c(OC)cc1NC(=O)CCCCCN1C(=O)CCC1=O,inconclusive: 9.98%,
CCOc1ccc2nc(N3CCN(C(=O)c4ccc(S(=O)(=O)CC)cc4)CC3)sc2c1,,"inconclusive: 11.2 µM [falling, partial curve, poor fit]"
C=C(C)Cc1c(C)c(C#N)c2nc3ccccc3n2c1N1CCCCC1,inconclusive: 5.95%,
COc1ccccc1NC(=O)COC(=O)c1ccccc1SCC(=O)N1CCCC1,,"inconclusive: 6.51 µM [falling, full curve, poor fit]"
O=C(N/N=C/c1c[nH]c2ccccc12)c1cccs1,,"inconclusive: 31.6 µM [rising, single point]"
CC(=O)COc1ncn(-c2ccccc2)n1,inconclusive: 0.0735%,
COc1ccc(/C=N/NC(=O)c2nonc2C)cc1,,"inconclusive: 16.4 µM [falling, partial curve]"
Cc1ccc(-c2ccc(=O)n(Cc3cccc(Br)c3)n2)cc1,inactive,
Cc1nc2cc(-n3ccc(=O)cc3)ccc2n1-c1ccccc1,inconclusive: -22%,
Cn1c(C(=O)N2CCN(c3nc4ccccc4s3)CC2)cc2sccc21,inactive,
CC(C)(CO)Nc1nc(Cl)nc(NC2CCCCC2)n1,inconclusive: 16.3%,
CCOc1ccccc1NC(=O)c1ccccc1N(C)S(C)(=O)=O,inactive,
Oc1ccc(/C=N/N2CCN(C3c4ccccc4-c4ccccc43)CC2)cc1,inactive,

Structure (SMILES),"activity change, negative = inhibition",Potency
CC(=O)Nc1ccc(S(=O)(=O)N(C)c2ccc(OCC(=O)OCC(=O)Nc3ccc(OC(F)F)cc3)cc2)cc1,inconclusive: 4.04%,
Cc1cc(C)c(NC(=O)CSc2nc3ccccc3c3nc(CCn4cncc4C)nn23)c(C)c1,,"inconclusive: 6.31 µM [falling, single point]"
COCCNC(=S)N1CCC(c2nc(-c3ccc(F)cc3)no2)CC1,,"inconclusive: 5.62 µM [falling, single point]"
CCS(=O)(=O)c1ccc2c(c1)N(S(=O)(=O)c1ccccc1)CC(C(=O)O)O2 (stereo unspecified),inconclusive: 0.275%,
COc1ccccc1Nc1nc(C)cc(C)n1,inconclusive: 2.89%,
CC(/C=C/c1ccco1)=N/NC(=O)c1ccccc1Cl,,"inconclusive: 20 µM [falling, partial curve]"
CCOc1ccc(CN(C(=O)c2ccccn2)c2ccc(OC)c(Cl)c2)cc1,inconclusive: 15.2%,
O=C(N/N=C\c1ccc(-c2ccccc2[N+](=O)[O-])o1)C1COc2ccccc2O1 (stereo unspecified),inconclusive: 2.65%,
CCC(=O)Nc1nnc(S(=O)(=O)N(CC)c2ccc(OC)cc2)s1,inconclusive: -1.84%,
O=C(Nc1cccc2ccccc12)NC1CCCc2ccccc21 (stereo unspecified),inconclusive: -3.92%,
CSc1ccccc1NC(=O)CN(C)C(=O)CCc1c[nH]c2ccccc12,inconclusive: -25.1%,
COC(=O)C1=C(C)NC(C)=C(C(=O)OC)C1C(=O)OCC(=O)c1ccc(F)cc1,inconclusive: -7.6%,
N#Cc1c(N)nc2c(c1-c1cccc(O)c1)CCCCCC2,inactive,
COc1ccc(-c2cc(C(=O)O)[nH]n2)cc1OC,inactive,
O=C(NC1CCCCC1)c1cc([N+](=O)[O-])[nH]n1,,"inconclusive: 18.4 µM [falling, partial curve]"
CCC(C)NC(=O)c1ccccc1NC(=O)c1ccc(CSc2ccccc2)cc1 (stereo unspecified),inconclusive: 7.6%,
NC(=O)c1ccsc1NC(=O)COC(=O)c1cc(Cl)ccc1O,,"inconclusive: 9.2 µM [falling, partial curve]"
CCCC1CCC(c2ccc(/C(N)=N/O)cc2)CC1 (stereo unspecified),inconclusive: 5.52%,
COC(=O)c1nc(NC(=O)C(C)(C)C)n[nH]1,inactive,
CN(C)c1ccc(NC(=O)c2ccc(COc3cccc(Cl)c3)o2)cc1,inactive,
Cc1cc(C)nc(/N=C(\N)N(Cc2ccccc2)Cc2ccccc2)n1,inactive,

Structure (SMILES),"activity change, negative = inhibition",Potency
c1ccc2c(NCCCN3CCOCC3)c3ccccc3nc2c1,,"inconclusive: 12.6 µM [rising, partial curve]"
COc1cccc2cc(C(C)=O)c(=O)oc12,,"inconclusive: 18.4 µM [falling, partial curve]"
COc1ccc(NC(=O)CCc2ccc(OC)c(OC)c2)cn1,inactive,
CCN(CC)C(=O)Nc1ccc(Br)cc1,inconclusive: 12.1%,
CCC(Sc1nncn1C)C(=O)Nc1nnc(-c2ccccc2Cl)s1 (stereo unspecified),inconclusive: 4.32%,
CC(NC(=O)CNC(=S)N(Cc1cccs1)C1CCCC1)c1ccccc1 (stereo unspecified),inconclusive: 0.954%,
Cn1ccc(C(=O)OCC(=O)c2ccccc2)n1,inconclusive: -0.831%,
COc1cccc(C(=O)Nc2ncc3c(n2)CC(c2ccc(OC)cc2OC)CC3=O)c1 (stereo unspecified),,"inconclusive: 35.5 µM [rising, single point]"
COc1ccc(CCNC(=O)COC(=O)c2ccc(Br)o2)cc1OC,inconclusive: 1.49%,
O=C1C=C(Nc2ccc(O)cc2)C(=O)c2ccccc21,,"inconclusive: 3.55 µM [falling, full curve]"
COc1ccc(CCNC(=O)c2nn(C)cc2Cl)cc1,,"inconclusive: 18.4 µM [falling, single point]"
CCCC[C@@]1(C2CCCC2)Cc2cc(OCC(=O)O)c(Cl)c(Cl)c2C1=O,inconclusive: 2.78%,
CC(C)(CNC(=O)/C=C/c1ccc(F)cc1)CNC(=O)/C=C/c1ccc(F)cc1,inconclusive: -12.4%,
COc1ccc(OC)c2sc(N(CCCN(C)C)C(=O)CCS(=O)(=O)c3ccccc3)nc12,,"inconclusive: 32.6 µM [rising, partial curve, poor fit]"
Cc1nn(-c2ccccc2)c2nc(=O)n(-c3ccccc3)cc12,inactive,
COCCOC(=O)C1=C(C)NC(=O)NC1c1ccc(-c2ccc(F)cc2)o1 (stereo unspecified),,"inconclusive: 1.78 µM [falling, partial curve, poor fit]"
CCN(CC)S(=O)(=O)c1ccc(NC2CCCc3ccccc32)nc1 (stereo unspecified),inconclusive: -25.3%,
CC1(C)CCCN(C(=O)c2ccc3c(c2NCCO)C(=O)c2ccccc2C3=O)C1,inconclusive: 8.85%,

# Part of the list above, reformatted:
Structure (SMILES) | activity change, negative = inhibition | Potency
CC(NC(=O)CNC(=S)N(Cc1cccs1)C1CCCC1)c1ccccc1 (stereo unspecified) | inconclusive: 0.954% | 
Cn1ccc(C(=O)OCC(=O)c2ccccc2)n1 | inconclusive: -0.831% | 
COc1cccc(C(=O)Nc2ncc3c(n2)CC(c2ccc(OC)cc2OC)CC3=O)c1 (stereo unspecified) |  | inconclusive: 35.5 µM [rising, single point]
